According to the supplement of paper PMC8728848:
The other results are listed elsewhere or left out.

Assays:
Assay in all cases: glycan array binding signal (z-score within array); higher = stronger binding
Details in all cases: glycan notation: IUPAC condensed, linker removed
[1] = target: Gal(b1-4)GlcNAc(b1-3)Gal(b1-4)GlcNAc(b1-2)Man(a1-3)[Gal(b1-4)GlcNAc(b1-3)Gal(b1-4)GlcNAc(b1-2)Man(a1-6)]Man(b1-4)GlcNAc(b1-4)[Fuc(a1-6)]GlcNAc
Method in brief: (§1)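 The binding signal is a Z-score computed within each array. Data were drawn from 3228 arrays in the Consortium for Functional Glycomics database, restricted to those with a known protein sequence. Scores were averaged over arrays of the same protein sequence at different concentrations or buffers, and over linkers, and negative values can be taken as non-binding.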

[2] = target: Gal(b1-4)GlcNAc(b1-3)Gal(b1-4)GlcNAc(b1-2)[Gal(b1-4)GlcNAc(b1-3)Gal(b1-4)GlcNAc(b1-6)]Man(a1-6)[Gal(b1-4)GlcNAc(b1-3)Gal(b1-4)GlcNAc(b1-2)Man(a1-3)]Man(b1-4)GlcNAc(b1-4)GlcNAc
Method in brief: as §1

[3] = target: Gal(b1-4)GlcNAc(b1-3)Gal(b1-4)GlcNAc(b1-2)[Gal(b1-4)GlcNAc(b1-3)Gal(b1-4)GlcNAc(b1-6)]Man(a1-6)[Gal(b1-4)GlcNAc(b1-3)Gal(b1-4)GlcNAc(b1-2)Man(a1-3)]Man(b1-4)GlcNAc(b1-4)[Fuc(a1-6)]GlcNAc
Method in brief: as §1

[4] = target: Gal(b1-4)GlcNAc(b1-3)Gal(b1-4)GlcNAc(b1-3)Gal(b1-4)GlcNAc
Method in brief: as §1

[5] = target: Gal(b1-4)GlcNAc(b1-3)Gal(b1-4)GlcNAc(b1-3)Gal(b1-4)GlcNAc(b1-2)Man(a1-3)[Gal(b1-4)GlcNAc(b1-3)Gal(b1-4)GlcNAc(b1-3)Gal(b1-4)GlcNAc(b1-2)Man(a1-6)]Man(b1-4)GlcNAc(b1-4)GlcNAc
Method in brief: as §1

[6] = target: Gal(b1-4)GlcNAc(b1-3)Gal(b1-4)GlcNAc(b1-3)Gal(b1-4)GlcNAc(b1-2)Man(a1-3)[Gal(b1-4)GlcNAc(b1-3)Gal(b1-4)GlcNAc(b1-3)Gal(b1-4)GlcNAc(b1-2)Man(a1-6)]Man(b1-4)GlcNAc(b1-4)[Fuc(a1-6)]GlcNAc
Method in brief: as §1

[7] = target: Gal(b1-4)GlcNAc(b1-3)Gal(b1-4)GlcNAc(b1-3)Gal(b1-4)GlcNAc(b1-2)[Gal(b1-4)GlcNAc(b1-3)Gal(b1-4)GlcNAc(b1-3)Gal(b1-4)GlcNAc(b1-6)]Man(a1-6)[Gal(b1-4)GlcNAc(b1-3)Gal(b1-4)GlcNAc(b1-3)Gal(b1-4)GlcNAc(b1-2)Man(a1-3)]Man(b1-4)GlcNAc(b1-4)[Fuc(a1-6)]GlcNAc
Method in brief: as §1

[8] = target: Gal(b1-4)GlcNAc(b1-3)Gal(b1-4)GlcNAc(b1-3)Gal(b1-4)GlcNAc(b1-3)Gal(b1-4)GlcNAc(b1-2)Man(a1-3)[Gal(b1-4)GlcNAc(b1-3)Gal(b1-4)GlcNAc(b1-3)Gal(b1-4)GlcNAc(b1-3)Gal(b1-4)GlcNAc(b1-2)Man(a1-6)]Man(b1-4)GlcNAc(b1-4)GlcNAc
Method in brief: as §1

[9] = target: Gal(b1-4)GlcNAc(b1-3)Gal(b1-4)GlcNAc(b1-3)Gal(b1-4)GlcNAc(b1-3)Gal(b1-4)GlcNAc(b1-2)Man(a1-3)[Gal(b1-4)GlcNAc(b1-3)Gal(b1-4)GlcNAc(b1-3)Gal(b1-4)GlcNAc(b1-3)Gal(b1-4)GlcNAc(b1-2)Man(a1-6)]Man(b1-4)GlcNAc(b1-4)[Fuc(a1-6)]GlcNAc
Method in brief: as §1

[10] = target: Gal(b1-4)GlcNAc(b1-3)Gal(b1-4)GlcNAc(b1-3)Gal(b1-4)GlcNAc(b1-3)Gal(b1-4)GlcNAc(b1-2)[Gal(b1-4)GlcNAc(b1-3)Gal(b1-4)GlcNAc(b1-3)Gal(b1-4)GlcNAc(b1-3)Gal(b1-4)GlcNAc(b1-6)]Man(a1-6)[Gal(b1-4)GlcNAc(b1-3)Gal(b1-4)GlcNAc(b1-3)Gal(b1-4)GlcNAc(b1-3)Gal(b1-4)GlcNAc(b1-2)Man(a1-3)]Man(b1-4)GlcNAc(b1-4)[Fuc(a1-6)]GlcNAc
Method in brief: as §1

[11] = target: Gal(b1-4)GlcNAc(b1-3)Gal(b1-4)GlcNAc(b1-3)Gal(b1-4)GlcNAc(b1-3)Gal(b1-4)GlcNAc(b1-3)Gal(b1-4)GlcNAc(b1-2)Man(a1-3)[Gal(b1-4)GlcNAc(b1-3)Gal(b1-4)GlcNAc(b1-3)Gal(b1-4)GlcNAc(b1-3)Gal(b1-4)GlcNAc(b1-3)Gal(b1-4)GlcNAc(b1-2)Man(a1-6)]Man(b1-4)GlcNAc(b1-4)GlcNAc
Method in brief: as §1

[12] = target: Gal(b1-4)GlcNAc(b1-3)Gal(b1-4)GlcNAc(b1-3)Gal(b1-4)GlcNAc(b1-3)Gal(b1-4)GlcNAc(b1-3)Gal(b1-4)GlcNAc(b1-2)Man(a1-3)[Gal(b1-4)GlcNAc(b1-3)Gal(b1-4)GlcNAc(b1-3)Gal(b1-4)GlcNAc(b1-3)Gal(b1-4)GlcNAc(b1-3)Gal(b1-4)GlcNAc(b1-2)Man(a1-6)]Man(b1-4)GlcNAc(b1-4)[Fuc(a1-6)]GlcNAc
Method in brief: as §1

[13] = target: Gal(b1-4)GlcNAc(b1-3)Gal(b1-4)GlcNAc(b1-3)Gal(b1-4)GlcNAc(b1-3)Gal(b1-4)GlcNAc(b1-3)Gal(b1-4)GlcNAc(b1-2)[Gal(b1-4)GlcNAc(b1-3)Gal(b1-4)GlcNAc(b1-3)Gal(b1-4)GlcNAc(b1-3)Gal(b1-4)GlcNAc(b1-3)Gal(b1-4)GlcNAc(b1-6)]Man(a1-6)[Gal(b1-4)GlcNAc(b1-3)Gal(b1-4)GlcNAc(b1-3)Gal(b1-4)GlcNAc(b1-3)Gal(b1-4)GlcNAc(b1-3)Gal(b1-4)GlcNAc(b1-2)Man(a1-3)]Man(b1-4)GlcNAc(b1-4)[Fuc(a1-6)]GlcNAc
Method in brief: as §1

[14] = target: Gal(b1-4)GlcNAc(b1-3)Gal(b1-4)GlcNAc(b1-3)Gal(b1-4)GlcNAc(b1-3)Gal(b1-4)GlcNAc(b1-3)Gal(b1-4)GlcNAc(b1-3)Gal(b1-4)GlcNAc(b1-2)Man(a1-3)[Gal(b1-4)GlcNAc(b1-3)Gal(b1-4)GlcNAc(b1-3)Gal(b1-4)GlcNAc(b1-3)Gal(b1-4)GlcNAc(b1-3)Gal(b1-4)GlcNAc(b1-3)Gal(b1-4)GlcNAc(b1-2)Man(a1-6)]Man(b1-4)GlcNAc(b1-4)GlcNAc
Method in brief: as §1

[15] = target: Gal(b1-4)GlcNAc(b1-3)Gal(b1-4)GlcNAc(b1-3)GalNAc
Method in brief: as §1

[16] = target: Gal(b1-4)GlcNAc(b1-3)Gal(b1-4)GlcNAc(b1-3)[Gal(b1-4)GlcNAc(b1-3)Gal(b1-4)GlcNAc(b1-6)]GalNAc
Method in brief: as §1

[17] = target: Gal(b1-4)GlcNAc(b1-3)Gal(b1-4)GlcNAc(b1-6)[Gal(b1-3)]GalNAc
Method in brief: as §1

[18] = target: Gal(b1-4)GlcNAc(b1-3)Gal(b1-4)[Fuc(a1-3)]GlcNAc(b1-3)Gal(b1-4)[Fuc(a1-3)]GlcNAc
Method in brief: as §1

[19] = target: Gal(b1-4)GlcNAc(b1-3)GalNAc
Method in brief: as §1

[20] = target: Gal(b1-4)GlcNAc(b1-3)[Fuc(a1-3)GlcNAc(b1-6)]Gal(b1-4)Glc
Method in brief: as §1

[21] = target: Gal(b1-4)GlcNAc(b1-3)[Gal(b1-4)GlcNAc(b1-6)]Gal(b1-4)GlcNAc
Method in brief: as §1

[22] = target: Gal(b1-4)GlcNAc(b1-3)[GlcNAc(b1-6)]Gal(b1-4)GlcNAc
Method in brief: as §1

[23] = target: Gal(b1-4)GlcNAc(b1-6)Gal(b1-4)GlcNAc
Method in brief: as §1

[24] = target: Gal(b1-4)GlcNAc(b1-6)GalNAc
Method in brief: as §1

[25] = target: Gal(b1-4)GlcNAc(b1-6)[Gal(b1-3)]GalNAc
Method in brief: as §1

[26] = target: Gal(b1-4)GlcNAc(b1-6)[Gal(b1-4)GlcNAc(b1-3)]GalNAc
Method in brief: as §1

[27] = target: Gal(b1-4)GlcNAc6P
Method in brief: as §1

[28] = target: Gal(b1-6)Gal
Method in brief: as §1

[29] = target: Gal3S(b1-3)GalNAc
Method in brief: as §1

[30] = target: Gal3S(b1-3)GlcNAc
Method in brief: as §1

B1: CcfD (Bacteroides vulgatus), A6KYX8 (protein)
chain: MKYKNYFKSIIYLALGAFTLGSCEDFLDRQEDEKLTFDKIWESRNTTQQYWLNAMSFLPNENGSLQGDTEPYLGASDECTIAYDRQYRWINFGTWNPSQVPYYKMDHYYKGIRECNIFLQNVYKCSDPLVTKDQLDEWYWQTRFARAYYYFLMMRDYGPVFLLGDDLLDFTASTEELYRPRNTWDQCVNYVVSEMTQCAESGVVLQQSDLPAAKWGLATVGTCHAVISRLLLYSARPLFNGNKLYSTVKNPDAPDFPELSGVKLFPELDNTKWQKAAEAAKKLIDNPCYELYRAGNDNPYEDYYGVTHETWNKELIWTDRYNGLFSWGVGTVPTGVAGTAYGAVGPTQALVDAYAMNTGWYPITGYEADGTPIVEPLSGYELASELEKSSWIYPSGGWSNKADFEIEAPNMYKDREPRFYVTVFFGGNQWLHGNSATSISFAKGGNGNKSHDYPKSGYLCNRFYDHKLNSSEGQWGNITFPVFRLGEIYLNFIEAVLECKKNGVALDPSYEALAMEKWADLRKRAGLDPITSIYGQVSTEELIQLCRKERQIELAFERHRYFDTRTWMIATQTDNGKMYGMNTSCPLDAGMKGTETPDGFWERTAFETRVFQNKHYLYPFSQRELDRNKLLTQNYGW
- glycan array binding signal (z-score) [1]: 0.414
- glycan array binding signal (z-score) [2]: 0.826
- glycan array binding signal (z-score) [3]: 1.07
- glycan array binding signal (z-score) [4]: -1.02
- glycan array binding signal (z-score) [5]: 0.6
- glycan array binding signal (z-score) [6]: 0.587
- glycan array binding signal (z-score) [7]: 0.704
- glycan array binding signal (z-score) [8]: -0.363
- glycan array binding signal (z-score) [9]: 0.003
- glycan array binding signal (z-score) [10]: -0.388
- glycan array binding signal (z-score) [11]: -0.647
- glycan array binding signal (z-score) [12]: 0.287
- glycan array binding signal (z-score) [13]: 0.262
- glycan array binding signal (z-score) [14]: -0.962
- glycan array binding signal (z-score) [15]: -0.256
- glycan array binding signal (z-score) [16]: -0.978
- glycan array binding signal (z-score) [17]: -0.226
- glycan array binding signal (z-score) [18]: -0.404
- glycan array binding signal (z-score) [19]: -0.101
- glycan array binding signal (z-score) [20]: 0.186
- glycan array binding signal (z-score) [21]: -1.48
- glycan array binding signal (z-score) [22]: -0.891
- glycan array binding signal (z-score) [23]: -0.515
- glycan array binding signal (z-score) [24]: -0.62
- glycan array binding signal (z-score) [25]: -0.208
- glycan array binding signal (z-score) [26]: -0.503
- glycan array binding signal (z-score) [27]: -0.586
- glycan array binding signal (z-score) [28]: -1
- glycan array binding signal (z-score) [29]: 0.613
- glycan array binding signal (z-score) [30]: -0.233
